Source: patent US8993575B2, “[1,3,4] oxadiazole derivative and application thereof” (Huazhong University of Science & Technology, priority 2011, dated 2015)

Amino acid sequences for entries named in this document (tags omitted). Residues count along the entry.
UniProt P08909, 33-460 limits assumed: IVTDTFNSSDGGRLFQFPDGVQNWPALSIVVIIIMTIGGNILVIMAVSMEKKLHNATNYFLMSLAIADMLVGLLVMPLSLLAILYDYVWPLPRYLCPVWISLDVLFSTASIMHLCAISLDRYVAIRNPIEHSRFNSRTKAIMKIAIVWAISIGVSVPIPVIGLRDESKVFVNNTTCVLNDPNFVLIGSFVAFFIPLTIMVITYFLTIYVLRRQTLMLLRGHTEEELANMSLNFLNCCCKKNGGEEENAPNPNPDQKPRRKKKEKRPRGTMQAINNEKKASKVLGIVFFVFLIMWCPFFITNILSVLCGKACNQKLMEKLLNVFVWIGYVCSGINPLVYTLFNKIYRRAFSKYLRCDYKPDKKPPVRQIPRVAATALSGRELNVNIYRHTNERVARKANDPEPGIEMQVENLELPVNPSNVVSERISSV

Biological target: 5HT2C (Rattus norvegicus (Rat), UniProt P08909)
Assay: 5HT2C receptor binding assay ([3H]-mesulergine, rat brain mantle membrane)
Conditions: test compound final concentration 10^-5 M
Protocol: Incubation at 37° C. was conducted for 10 min, the weight of the tubes were adjusted using a balance after the incubation. […] Centrifugation was conducted (repeated 3 times).

O=C1CCc2ccc(OCCCCN3CCN(c4cccc(Cl)c4Cl)CC3)cc2N1 [aripiprazole, reference compound] gave an inhibition at 10 µM of 99.8%.
